Measured values from PubChem BioAssay AID308 (DTP/NCI, 2004).
The list shows only some results of the screen, not a fair sample: it gathers tests that were run many times, whatever their T/C, doses with no T/C, and many T/C values between a quarter and a half above the control. Further doses and runs are listed elsewhere. T/C is the treated group as % of the vehicle group. Some doses have a count of surviving animals in place of a T/C: the source files T/C as zero there, which appears to mark a toxic dose or a test without result, not a measured value. Some survivor counts are full or nearly so, which does not show that the dose was tolerated: survival well below the control is almost never listed, so the zero probably covers shortened survival too. Survivors were counted at the toxicity check, usually on the fifth day, unless a day is given; later deaths do not show. Schedule codes are those of the source, taken here to give the interval after Q, in days (D) or hours (H), and the number of doses after X. Some schedule codes hold Z or #, which are not explained here. Some entries hold several experiments; the results are listed from low to high. Where survival is the endpoint, this PubChem deposit counts one and a half times the control or more as active, and values a quarter to a half above the control carry no call in these data; other NCI protocols may use other cut-offs.

Test system: BDF1 mice, L1210 6-MP/6-TG resistant leukemia ip, survival T/C
Experiment: NCI In Vivo Anticancer Drug Screen. Data for tumor model L1210 Leukemia resistant to 6-MP and 6-Thioguanine; NSC 755, NSC 752 (intraperitoneal) in B6D2F1 (BDF1) mice
Conditions: T/C endpoint: mean survival time, higher T/C = longer survival
Description: The antitumor activity of compounds was measured in mice bearing transplantable tumors. Survival or tumor size were measured and the results are expressed as the measurement made in the treated group (T) divided by the measurement made in the vehicle treated control group (C). The tumor model used in this assay is L1210 Leukemia resistant to 6-MP and 6-Thioguanine; NSC 755, NSC 752 (intraperitoneal) in B6D2F1 (BDF1) mice

[1] = dose: 100.0 mg/kg/injection, schedule: Q01DX Z (ip), vehicle: carboxymethylcellulose (CMC)

Question: What does the source list for `Clc1ncnc2nc[nH]c12`?
Answer: survivor count [1]: 6 of 6; survivor count (dose: 250.0 mg/kg/injection, schedule: Q01DX Z (ip), vehicle: carboxymethylcellulose (CMC)): 6 of 6; survivor count (dose: 350.0 mg/kg/injection, schedule: Q01DX Z (ip), vehicle: carboxymethylcellulose (CMC)): 1 of 6; survivor count (dose: 400.0 mg/kg/injection, schedule: Q01DX Z (ip), vehicle: carboxymethylcellulose (CMC)): 0 of 6; survivor count (dose: 500.0 mg/kg/injection, schedule: Q01DX001 (ip), vehicle: carboxymethylcellulose (CMC)): 0 of 10 and 1 of 10; survivor count (dose: 750.0 mg/kg/injection, schedule: Q01DX001 (ip), vehicle: carboxymethylcellulose (CMC)): 0 of 10; survivor count (dose: 1000.0 mg/kg/injection, schedule: Q01DX001 (ip), vehicle: carboxymethylcellulose (CMC)): 0 of 10

Question: How did the survivor count (dose: 37.5 mg/kg/injection, schedule: Q01DX Z (ip), vehicle: other) turn out when `CCCC(=O)OCC1OC(n2cnc3c(=S)nc[nH]c32)C(OC(=O)CCC)C1OC(=O)CCC` (configuration not stated) was run?
Answer: 9 of 10

Question: What about the survivor count (dose: 200.0 mg/kg/injection, schedule: Q01DX009 (ip), vehicle: Klucel (hydroxypropylcellulose) (HPC)) of the same compound?
Answer: 10 of 10

Question: And the survivor count (dose: 200.0 mg/kg/injection, schedule: Q01DX Z (ip), vehicle: other)?
Answer: 6 of 7

Question: And the survivor count (dose: 400.0 mg/kg/injection, schedule: Q01DX009 (ip), vehicle: Klucel (hydroxypropylcellulose) (HPC))?
Answer: 7 of 10

Question: With `O=C(Nc1ccc(C2=NCCN2)cc1)c1cccc(C(=O)Nc2ccc(C3=NCCN3)cc2)c1` as the compound, how does the T/C (dose: 5.0 mg/kg/injection, schedule: Q01DX Z (ip), vehicle: water) read?
Answer: 143 % of control

Question: And the T/C (dose: 25.0 mg/kg/injection, schedule: Q01DX Z (ip), vehicle: water)?
Answer: 131 % of control

Question: What about the survivor count (dose: 50.0 mg/kg/injection, schedule: Q01DX Z (ip), vehicle: water) of the same compound?
Answer: 5 of 6

Question: And the survivor count (dose: 75.0 mg/kg/injection, schedule: Q01DX Z (ip), vehicle: water)?
Answer: 4 of 6

Question: What about the survivor count (dose: 100.0 mg/kg/injection, schedule: Q01DX Z (ip), vehicle: water) of the same compound?
Answer: 4 of 6

Question: `O=C(Nc1ccc(C2=NCCCN2)cc1)c1ccc(C(=O)Nc2ccc(C3=NCCCN3)cc2)cc1` was tested. Which T/C (dose: 0.93 mg/kg/injection, schedule: Q01DX Z (ip), vehicle: carboxymethylcellulose (CMC)) did it give?
Answer: 139 % of control

Question: And the survivor count (dose: 30.0 mg/kg/injection, schedule: Q01DX Z (ip), vehicle: carboxymethylcellulose (CMC))?
Answer: 6 of 6

Question: And the survivor count (dose: 50.0 mg/kg/injection, schedule: Q01DX Z (ip), vehicle: carboxymethylcellulose (CMC))?
Answer: 0 of 6

Question: What about the survivor count (dose: 75.0 mg/kg/injection, schedule: Q01DX Z (ip), vehicle: carboxymethylcellulose (CMC)) of the same compound?
Answer: 0 of 6

Question: And the survivor count [1]?
Answer: 0 of 6

Question: And the survivor count (dose: 150.0 mg/kg/injection, schedule: Q01DX Z (ip), vehicle: carboxymethylcellulose (CMC))?
Answer: 0 of 6
